This is an account of results in article PMC5958119.

By UniProt entry, the sequences of proteins in these tests, tags left out. Where a name states a change or a piece, a line headed by the entry shows the natural chain unless it says otherwise.
UniProt Q96QB1: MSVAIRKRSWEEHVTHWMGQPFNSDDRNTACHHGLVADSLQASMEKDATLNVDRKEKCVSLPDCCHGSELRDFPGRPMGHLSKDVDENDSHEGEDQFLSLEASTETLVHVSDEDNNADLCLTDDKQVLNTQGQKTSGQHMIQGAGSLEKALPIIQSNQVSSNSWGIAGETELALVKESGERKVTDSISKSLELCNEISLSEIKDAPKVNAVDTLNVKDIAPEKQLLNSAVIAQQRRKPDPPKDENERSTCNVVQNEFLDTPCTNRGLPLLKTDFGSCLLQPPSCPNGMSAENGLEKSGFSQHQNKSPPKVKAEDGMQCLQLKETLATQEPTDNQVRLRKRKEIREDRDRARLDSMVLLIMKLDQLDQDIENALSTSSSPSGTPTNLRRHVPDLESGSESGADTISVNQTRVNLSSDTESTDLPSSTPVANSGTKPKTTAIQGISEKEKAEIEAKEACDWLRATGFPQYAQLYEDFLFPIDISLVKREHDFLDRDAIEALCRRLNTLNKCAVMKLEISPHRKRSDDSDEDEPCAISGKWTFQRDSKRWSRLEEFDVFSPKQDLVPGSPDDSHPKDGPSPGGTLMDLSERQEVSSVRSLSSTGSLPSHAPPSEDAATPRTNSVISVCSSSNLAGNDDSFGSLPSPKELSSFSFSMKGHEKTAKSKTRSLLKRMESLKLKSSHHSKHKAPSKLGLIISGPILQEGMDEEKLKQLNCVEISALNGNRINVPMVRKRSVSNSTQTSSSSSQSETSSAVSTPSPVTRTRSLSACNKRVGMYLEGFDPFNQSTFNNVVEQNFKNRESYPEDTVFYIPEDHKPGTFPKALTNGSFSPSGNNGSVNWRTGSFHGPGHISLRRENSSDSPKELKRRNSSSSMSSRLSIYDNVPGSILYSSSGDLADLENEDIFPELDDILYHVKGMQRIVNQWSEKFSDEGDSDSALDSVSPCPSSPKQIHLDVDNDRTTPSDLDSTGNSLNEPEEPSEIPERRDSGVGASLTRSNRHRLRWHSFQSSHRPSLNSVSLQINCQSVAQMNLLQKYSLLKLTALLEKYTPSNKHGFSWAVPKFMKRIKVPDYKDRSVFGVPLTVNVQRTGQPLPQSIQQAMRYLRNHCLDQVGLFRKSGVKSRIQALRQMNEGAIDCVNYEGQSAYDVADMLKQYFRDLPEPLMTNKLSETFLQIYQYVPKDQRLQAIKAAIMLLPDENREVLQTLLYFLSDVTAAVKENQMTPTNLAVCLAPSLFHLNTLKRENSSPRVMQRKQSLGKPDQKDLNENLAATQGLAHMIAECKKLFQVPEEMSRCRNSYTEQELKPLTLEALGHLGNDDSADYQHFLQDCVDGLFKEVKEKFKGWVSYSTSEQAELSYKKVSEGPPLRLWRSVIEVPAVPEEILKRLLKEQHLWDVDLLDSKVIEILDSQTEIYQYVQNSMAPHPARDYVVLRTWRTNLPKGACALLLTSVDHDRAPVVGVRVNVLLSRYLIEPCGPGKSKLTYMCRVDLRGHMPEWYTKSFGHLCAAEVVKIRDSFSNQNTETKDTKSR
UniProt O88382: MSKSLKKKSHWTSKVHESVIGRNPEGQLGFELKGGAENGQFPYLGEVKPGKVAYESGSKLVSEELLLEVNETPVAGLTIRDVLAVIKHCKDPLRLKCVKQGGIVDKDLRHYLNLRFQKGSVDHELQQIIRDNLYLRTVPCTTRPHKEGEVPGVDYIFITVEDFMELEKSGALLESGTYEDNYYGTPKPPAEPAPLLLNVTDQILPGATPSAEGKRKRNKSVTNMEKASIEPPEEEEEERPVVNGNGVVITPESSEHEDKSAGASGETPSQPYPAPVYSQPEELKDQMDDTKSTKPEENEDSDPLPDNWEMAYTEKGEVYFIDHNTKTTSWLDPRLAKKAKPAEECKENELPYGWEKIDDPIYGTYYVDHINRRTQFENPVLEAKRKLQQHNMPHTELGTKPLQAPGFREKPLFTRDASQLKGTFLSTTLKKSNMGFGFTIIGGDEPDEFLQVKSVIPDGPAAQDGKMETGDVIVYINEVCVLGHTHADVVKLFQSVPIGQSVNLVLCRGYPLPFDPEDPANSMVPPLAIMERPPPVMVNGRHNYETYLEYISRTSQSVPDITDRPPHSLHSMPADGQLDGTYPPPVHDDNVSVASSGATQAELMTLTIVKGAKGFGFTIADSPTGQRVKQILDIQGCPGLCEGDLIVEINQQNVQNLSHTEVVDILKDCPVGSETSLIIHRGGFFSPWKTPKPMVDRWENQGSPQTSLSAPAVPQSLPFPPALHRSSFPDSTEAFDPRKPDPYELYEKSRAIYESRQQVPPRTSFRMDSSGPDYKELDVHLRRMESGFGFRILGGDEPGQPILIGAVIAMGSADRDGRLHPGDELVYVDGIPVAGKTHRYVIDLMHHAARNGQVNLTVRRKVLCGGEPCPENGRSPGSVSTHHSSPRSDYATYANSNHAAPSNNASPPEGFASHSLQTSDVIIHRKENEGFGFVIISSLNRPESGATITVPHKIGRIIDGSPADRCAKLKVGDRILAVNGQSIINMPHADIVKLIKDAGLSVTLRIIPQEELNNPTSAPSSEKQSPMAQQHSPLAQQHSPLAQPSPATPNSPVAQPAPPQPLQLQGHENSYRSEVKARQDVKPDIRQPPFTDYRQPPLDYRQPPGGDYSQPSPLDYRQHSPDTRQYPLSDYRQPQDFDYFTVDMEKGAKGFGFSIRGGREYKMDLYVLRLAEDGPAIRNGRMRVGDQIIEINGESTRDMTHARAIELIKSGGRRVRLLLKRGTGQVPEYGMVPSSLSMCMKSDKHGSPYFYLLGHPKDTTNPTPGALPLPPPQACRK

No constants are given. Whether binding was seen depends on the method and setting. Binding seen in cells or lysates may run through a third protein. Some results given as binding are weak or reduced against the parent protein; the word gives no strength.

Assay [1] deals with DLC1 (deleted in liver cancer 1) wild type (human) (UniProt Q96QB1). The assay is described as follows: co-IP; co-overexpression in HEK293T cells; lysates pre-cleared with protein G or A beads, antibody overnight at 4 °C in lysis buffer with protease inhibitors, protein G or A beads (GFP-Trap agarose for GFP fusions), washed four times, immunoblot; confirmatory co-IPs for several pairs; DLC1 with CAV1 also reciprocal in cells pre- and post-treated with 100 uM dexamethasone, results not altered. (In general: In western blotting, separated proteins are transferred to a membrane and probed.)

In assay [2] the target is T1, TNS2 (tensin-2) wild type (not stated (human or mouse cDNA cloned)) (UniProt Q63HR2).
T1 sequence: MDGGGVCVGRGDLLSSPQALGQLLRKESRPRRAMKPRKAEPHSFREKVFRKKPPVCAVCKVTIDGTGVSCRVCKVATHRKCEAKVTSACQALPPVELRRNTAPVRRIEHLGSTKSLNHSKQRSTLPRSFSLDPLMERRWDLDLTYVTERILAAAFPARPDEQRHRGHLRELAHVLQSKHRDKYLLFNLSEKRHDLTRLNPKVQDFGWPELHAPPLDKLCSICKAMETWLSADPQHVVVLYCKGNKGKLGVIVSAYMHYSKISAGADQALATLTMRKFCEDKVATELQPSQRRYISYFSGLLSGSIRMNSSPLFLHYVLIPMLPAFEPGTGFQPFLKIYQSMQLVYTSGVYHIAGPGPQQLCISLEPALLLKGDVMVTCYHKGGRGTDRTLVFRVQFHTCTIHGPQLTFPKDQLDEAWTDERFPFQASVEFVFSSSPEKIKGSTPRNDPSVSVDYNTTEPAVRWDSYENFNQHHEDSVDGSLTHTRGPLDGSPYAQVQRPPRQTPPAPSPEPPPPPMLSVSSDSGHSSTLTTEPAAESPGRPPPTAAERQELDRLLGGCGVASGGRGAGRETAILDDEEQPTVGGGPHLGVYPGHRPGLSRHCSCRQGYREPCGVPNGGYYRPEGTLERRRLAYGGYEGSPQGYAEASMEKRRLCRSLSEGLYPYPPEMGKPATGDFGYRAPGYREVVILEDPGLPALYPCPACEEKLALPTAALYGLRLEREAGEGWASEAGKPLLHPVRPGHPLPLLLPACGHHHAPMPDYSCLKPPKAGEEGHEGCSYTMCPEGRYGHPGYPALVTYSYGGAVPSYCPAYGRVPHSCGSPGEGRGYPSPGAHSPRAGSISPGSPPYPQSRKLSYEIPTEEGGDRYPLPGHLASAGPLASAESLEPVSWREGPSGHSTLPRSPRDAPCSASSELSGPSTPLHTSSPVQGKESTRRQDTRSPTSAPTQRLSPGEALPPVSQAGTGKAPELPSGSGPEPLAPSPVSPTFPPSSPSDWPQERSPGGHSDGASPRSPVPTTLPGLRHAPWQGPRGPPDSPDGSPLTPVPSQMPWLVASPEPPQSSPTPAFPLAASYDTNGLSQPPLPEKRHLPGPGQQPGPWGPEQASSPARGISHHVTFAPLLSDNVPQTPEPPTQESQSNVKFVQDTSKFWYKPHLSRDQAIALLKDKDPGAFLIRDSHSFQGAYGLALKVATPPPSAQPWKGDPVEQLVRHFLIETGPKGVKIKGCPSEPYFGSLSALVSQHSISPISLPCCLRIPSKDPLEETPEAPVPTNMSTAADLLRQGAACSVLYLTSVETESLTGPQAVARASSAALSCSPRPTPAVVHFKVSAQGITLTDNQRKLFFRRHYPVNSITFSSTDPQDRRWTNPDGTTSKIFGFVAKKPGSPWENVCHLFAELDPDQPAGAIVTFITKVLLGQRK
The description is as above.

Take “MAGI2 wild type (rat Magi2, S-SCAM, full-length cDNA) (from UniProt O88382 1-1277)”: the binding entry in assay [1] and in assay [2] was “binds” throughout.
